Assay results taken from the supplement of paper PMC12889115.
The other results are listed elsewhere or left out. These are raw signals, not scaled to a control.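 In the initial screen, polymyxin B was used at a concentration that permeabilizes Salmonella's outer membrane but not its inner membrane. Maximum growth was set by DMSO wells with or without polymyxin B. Since plates varied, data were ranked per plate, and compounds giving the lowest OD600 advanced as hits.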

System: Salmonella enterica serovar Typhimurium SL1344
Test: bacterial growth OD600 after 18 h with compound and polymyxin B; higher = more bacterial growth (less inhibition)
Conditions: 50 µM, Mueller-Hinton broth

| SMILES | bacterial growth OD600 (polymyxin B 1 µg/mL) | bacterial growth OD600 (polymyxin B 0.75 µg/mL) |
| --- | --- | --- |
| CCOC(=O)C1(Cc2ccc(F)cc2F)CCCN(C(=O)c2cc(C3CC3)on2)C1 (stereo unspecified) | 0.495 |  |
| O=C(NCCCN1CCOCC1)c1ccc2nc(C3CCCCC3)oc2c1 | 0.857 |  |
| CSc1ncccc1C(=O)NCc1ccc2[nH]c(C)c(C)c2c1 |  | 0.776 |
| C=C(C)CNC(=O)c1cc(OC)ccc1OC1CCN(C2CCCC2)CC1 |  | 0.794 |
| CC(C)(C)NC(=O)CCN1Cc2ccccc2OC(c2ccccc2F)C1 (stereo unspecified) |  | 0.925 |
| COC(=O)c1ccc(C(=O)NC2CCCN(Cc3cccc(OC)c3)C2)cc1 (stereo unspecified) |  | 0.762 |
| O=C(CCC(F)(F)F)N1CCCC(N2CCN(c3cccc(Cl)c3)CC2)C1 (stereo unspecified) | 0.777 |  |
| CCS(=O)(=O)Nc1cc(C(=O)N(C)C(C)c2nccs2)c2c(c1)nc(-c1ccccc1)n2C (stereo unspecified) |  | 0.829 |
| CN(C(=O)c1cccs1)C(Cc1ccccc1)C1CCN(C(=O)CC2=CCCCC2)CC1 (stereo unspecified) |  | 0.013 |
| CCCCc1nc(CN2CCOc3ccc(CN4C[C@@H](C)O[C@@H](C)C4)cc3C2)c[nH]1 |  | 0.812 |
| CN(CCC1CCOCC1)C(=O)c1ccc2oc(Cc3ccc(Cl)cc3)nc2c1 | 1.15 |  |
| Cc1oc(-c2ccoc2)nc1CN1CCN(c2ccccc2)CC1C (stereo unspecified) | 1.11 |  |
| COc1ccccc1C1(CC(=O)N2CCCC(C(=O)c3ccccc3)C2)CC(=O)N(C)C1=O (stereo unspecified) |  | 0.969 |
| COc1ccc(CC2=NOC(CNC(=O)C(C)Oc3ccc(Cl)cc3C)C2)cc1 (stereo unspecified) |  | 0.613 |
| CCCn1ncc(CN2CCCC(CO)(CCc3ccccc3)C2)c1C (stereo unspecified) | 0.993 |  |
| CSc1ccccc1OCc1cc(C(=O)N(C)Cc2ccc(F)cc2)no1 | 0.771 |  |

| SMILES | bacterial growth OD600 (polymyxin B 1 µg/mL) | bacterial growth OD600 (polymyxin B 0.75 µg/mL) |
| --- | --- | --- |
| O=C(c1ccc(NCC2CCOCC2)nc1)N1CCCCC1CCn1cccn1 (stereo unspecified) | 0.948 |  |
| CCOC(=O)C1(CCc2ccccc2)CCCN(C(=O)c2c(C)cc(C)[nH]c2=O)C1 (stereo unspecified) |  | 0.877 |
| O=C(c1cc(COc2cccc(F)c2)[nH]n1)N1CC[C@H](O)C1 | 0.892 |  |
| CC1=C(C(=O)N2CCCC(N3CCN(Cc4ccc5c(c4)OCO5)CC3)C2)OCCO1 (stereo unspecified) | 0.923 |  |
| CCOC(=O)C1(Cc2ccc(Cl)cc2)CCN(Cc2ccccn2)CC1 | 0.778 |  |
| COc1ccc(CN(C)C(=O)C2CCC(=O)N(CCN3CCOCC3)C2)c2cccnc12 (stereo unspecified) | 1.25 |  |
| Cc1ccccc1CC(C1CCN(C(=O)c2ccc3ccccc3n2)CC1)N(C)C(=O)Cn1cccn1 (stereo unspecified) |  | 0.838 |
| CC1(C)C(=O)NCCN1C(=O)CC(c1cccc(Cl)c1)c1ccccc1O (stereo unspecified) | 1.26 |  |
| CC(C)NC(=O)CN1CCN(C(=O)CSc2ccc3nnc(-c4cccnc4)n3n2)CC1 |  | 0.944 |
| O=C(NC1CCCN(c2ncccn2)C1)c1c(F)cccc1Cl (stereo unspecified) | 0.864 |  |
| COc1cc(CN2CCC(C3(Cc4ccccc4Cl)NC(=O)N(CC4CC4)C3=O)CC2)ccc1O (stereo unspecified) |  | 0.837 |
| COc1ccccc1CCC(=O)Nc1cnn(CC(=O)N2CCC(Sc3ccc(F)cc3)CC2)c1 |  | 0.02 |
| CC(C)CC(=O)C(=O)NC1CC(=O)N(Cc2cccc(F)c2)C1 (stereo unspecified) | 0.853 |  |
| Cc1ocnc1C(=O)N1CCC2(CCCN(Cc3ccc(F)c(F)c3)C2=O)C1 (stereo unspecified) | 1.13 |  |
| COC(=O)CN(C)C(=O)Cc1c2c(n(CCc3ccccc3)c1C)CCCC2=O | 0.822 |  |

Some of the entries above, reformatted.
C=C(C)CNC(=O)c1cc(OC)ccc1OC1CCN(C2CCCC2)CC1
  bacterial growth OD600 (polymyxin B 0.75 µg/mL): 0.794
CN(C(=O)c1cccs1)C(Cc1ccccc1)C1CCN(C(=O)CC2=CCCCC2)CC1 (stereo unspecified)
  bacterial growth OD600 (polymyxin B 0.75 µg/mL): 0.013
